Values of other authors, collected in patent US7303915B2, “In vitro-differentiated retinal ganglion cells and method for producing same” (Wisconsin Alumni Research Foundation, priority 2005, dated 2007).

Legend:
cAMP PDE = details: Table 2; cited from earlier work
cGMP PDE = details: Table 2; cited from earlier work

Question: Which “inhibits cAMP PDE (X mark)” value (cAMP PDE) does the source give for `CN[C@@H]1C[C@H]2O[C@@](C)([C@@H]1OC)n1c3ccccc3c3c4c(c5c6ccccc6n2c5c31)C(=O)NC4` [staurosporine] here?
Answer: Its value is “(via”.

Question: What about the “inhibits cGMP PDE (X mark)” value (cGMP PDE) of the same compound?
Answer: Its value is “(via”.
